The text below walks through data of article PMC10338675.

The chains behind the UniProt entries cited, without tags or fusion partners.
UniProt Q01469: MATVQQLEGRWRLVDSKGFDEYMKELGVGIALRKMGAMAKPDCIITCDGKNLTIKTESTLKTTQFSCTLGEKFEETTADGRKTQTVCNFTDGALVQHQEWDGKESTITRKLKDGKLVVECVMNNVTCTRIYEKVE

These are yes or no findings as the source states them, for the method shown. Binding seen in cells or lysates may run through a third protein. These calls come from enrichment with a bait or labelling near it, and not all partners need be listed. Where a sequence is shown, tags or fusion partners need not be part of it.

This test deals with T1, neuroblastoma-associated small protein (NBASP), encoded by ORF1 of FAM201A, with a C-terminal FLAG tag (human) (UniProt Q5SY85).
T1 sequence: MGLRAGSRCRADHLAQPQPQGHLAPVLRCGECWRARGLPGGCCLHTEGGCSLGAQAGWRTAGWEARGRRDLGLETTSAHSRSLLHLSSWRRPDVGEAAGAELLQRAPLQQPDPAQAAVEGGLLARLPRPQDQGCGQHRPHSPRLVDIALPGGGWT
The test is described as follows: affinity purification with mass spectrometry; whole cell lysates of cells transfected with the ORF plasmid or the FLAG empty vector; Dynabead Protein G immunoprecipitation; SDS-PAGE, silver staining, differential bands excised and analysed by mass spectrometry.

On to “fatty acid-binding protein 5 (FABP5) (from UniProt Q01469 1-135)”, for which the binding result was “binds”.
